Laboratory results from publication PMC11784136.
The exact form of at least one protein or probe is not confirmed. For some of these results: Negatives hold for the conditions tested. For some of these results: A weaker result is weaker than the reference pair of the same experiment.

Experiments:
[1] = biological target: RpoS (sigma factor) (Pseudomonas putida) (UniProt Q88ME8); test: EMSA; details: 10 mM Mg2+, EMSA: 10 mM Tris pH 7.8, 50 mM KCl, 10 mM MgCl2, 5% glycerol, 25 C, 30 min, 5% acrylamide gel on ice, 0.5x TBE, recombinant protein, protein details: His (pET28a), probe letters rebuilt from the primers and the genome
[2] = biological target: RpoS (sigma factor) (Pseudomonas putida) (UniProt Q88ME8); test: competition with a labelled probe; details: 10-fold cold DNA abolished shift of labeled PwspA; EMSA: 10 mM Tris pH 7.8, 50 mM KCl, 10 mM MgCl2, 5% glycerol, 25 C, 30 min; 5% acrylamide gel on ice, 0.5x TBE; recombinant protein; protein details: His (pET28a); probe letters rebuilt from the primers and the genome

ATGGGCATATCGACGAGCGCGAGCGGGCGCTGATCGAGGGTGAATTCACGCGCCTGGACAGCGACCGCGAATTGCAGCACTGGCTGCATGCCGAGCTGAACAAGCCGCTGGACCCGGCCGAAGTGGCCCGCGCTGCGCAAACGCCGGAGATGGCTGCCGAGATGTACCTGGCCAGCGTGATGATGGTCGATCAGGAAAACTTCATGGAGCGTGCCTACCTGGACGAGCTGGCCCGCCAGCTGCGGCTGGACCCGGGCTTGCGCCAGGAACTGGAAAGCCAGGTGCGGTTGGCTGCAGCGTAGTGGCGGTGCTTGCCACGGCCTATTGAGCGCCTGTGAGATCGAGCGCCGCCCGTGCGGCGCTCCGTCTCACAGGCGCAAAATTCCTGACGACAATCACATCAATACCGTAAGACCTCTGGGTCGGCACTCGGCGATTTTTCCCGCTCGTTGTGAATTCCTGAGGGCTGAATGTGAAGAACTGGACCTTGCGCTCAGCAGGTAGCTTGACA (double strand) [PwspA(-10M)]
binding result [1]: no binding

ATGGGCATATCGACGAGCGCGAGCGGGCGCTGATCGAGGGTGAATTCACGCGCCTGGACAGCGACCGCGAATTGCAGCACTGGCTGCATGCCGAGCTGAACAAGCCGCTGGACCCGGCCGAAGTGGCCCGCGCTGCGCAAACGCCGGAGATGGCTGCCGAGATGTACCTGGCCAGCGTGATGATGGTCGATCAGGAAAACTTCATGGAGCGTGCCTACCTGGACGAGCTGGCCCGCCAGCTGCGGCTGGACCCGGGCTTGCGCCAGGAACTGGAAAGCCAGGTGCGGTTGGCTGCAGCGTAGTGGCGGTGCTTGCCACGGCCTATTGAGCGCCTGTGAGATCGAGCGCCGCCCGTGCGGCGCTCCGTCTCACAGGCGCAAAATTCCTGACGACAATCACATCAATACCGTAAGACCTCTGGGCTATACTTCGGCGATTTTTCCCGCTCGTTGTGAATTCCTGAGGGCTGAATGTGAAGAACTGGACCTTGCGCTCAGCAGGTAGCTTGACA (double strand) [cold PwspA (unlabeled specific competitor)]
binding result [2]: binds

ATGGGCATATCGACGAGCGCGAGCGGGCGCTGATCGAGGGTGAATTCACGCGCCTGGACAGCGACCGCGAATTGCAGCACTGGCTGCATGCCGAGCTGAACAAGCCGCTGGACCCGGCCGAAGTGGCCCGCGCTGCGCAAACGCCGGAGATGGCTGCCGAGATGTACCTGGCCAGCGTGATGATGGTCGATCAGGAAAACTTCATGGAGCGTGCCTACCTGGACGAGCTGGCCCGCCAGCTGCGGCTGGACCCGGGCTTGCGCCAGGAACTGGAAAGCCAGGTGCGGTTGGCTGCAGCGTAGTGGCGGTGCTTGCCACGGCCTATTGAGCGCCTGTGAGATCGAGCGCCGCCCGTGCGGCGCTCCGTCTCACAGGCGCAAAATTCCTGACGACAATCACATCAATACCGTAAGACCTCTGGGCTATACTTCGGCGATTTTTCCCGCTCGTTGTGAATTCCTGAGGGCTGAATGTGAAGAACTGGACCTTGCGCTCAGCAGGTAGCTTGACA (double strand) [PwspA]
binding result ([1]; shift at 100 nM RpoS or larger, label: FAM 5' (via tail primer)): binds

GGGCATGTCATTGACGATGGCGATCTTCATCCCTGAGCAACTCCGATCAGTTCCACAACAGCATCCAGCAACGCATCGTCGTGGAAACTGGCCTTTGCCAAATAGTAGTCGGCGCCGGCGTCCAGGCCACGCCGTCGGTCTTCCTCACGGTCTTTATAGGACACCACCATCACCGGCAATGACTGCAGGCGCTGGTCGCGACGCACCAGGGTAACCAGCTCGATACCGTCCATGCGCGGCATGTCGATGTCGGTGATCAACAGGTCGAAGTCCTCACTGCGCAGGGCGTTCCAGCCGTCCATGCCATCCACCGCCACCGCCACGTCGTAGCCACGGTTGCCCAGCAGCTTGCGCTGCAGTTCGCGTACGGTCAGCGAGTCGTCGACCACCAGGATGCGTTTGCGGACTACGCCACGGGCTCCGCTGCTGCCGCGCTCGATGCGCTCCAGGCTGCCCGTGCTGAGCAGTTTTTCCAGCGAGCGTAGCAAGTCTTCGACATCGACGATCAGGACCACCGAGCCATCATTCAGCAGGTAGCTTGACA (double strand) [PwspF]
binding result ([1]; weak and unspecific binding, label: FAM 5' (via tail primer)): binds more weakly
